Data from paper PMC8219378, “A putative structural mechanism underlying the antithetic effect of homologous RND1 and RhoD GTPases in mammalian plexin regulation” (eLife, 2021).
No constants are given. Whether binding was seen depends on the method and setting.

Biological target: mouse plexin B2 RBD (Rho-GTPase-binding domain), as found in the crystal (mouse) (UniProt B2RXS4)
Assay: crystal structure; plexin B2 (1274-1842) and GMP-PNP-loaded RhoD mixed at 1:1 molar ratio, 6 mg/mL; crystals grown for over a month at 20 C in 0.2 M MgCl2, 22% PEG3350, 100 mM MIB pH 6.8; molecular replacement, 3.1 A; two RhoD and two RBD in the asymmetric unit; both purified

- binding: no binding
B1: mouse plexin B2 RBD (Rho-GTPase-binding domain), as found in the crystal (domain or fragment, UniProt B2RXS4 1463-1565, looked up)
chain: EYAPLTVSVIVQDEGIDAIPVKVLNCDTISQVKEKIIDQVYRTQPCSCWPKPDSVVLEWRPGSTAQILSDLDLTSQREGRWKRINTLMHYNVRDGATLILSKV
notes: Plexin B2, mouse; Expressed as the intracellular region without the juxtamembrane region (residues 1274-1842); it degraded during crystallization and the crystal held only the RBD, built as residues 1463-1509 and 1510-1565; The range is that of the residues modelled in the structure; In the crystal two RBD chains form a domain-swapped dimer (swap between residues 1509 and 1510), which the authors …
